The target of the assay is Myc-caspase-8-C/A (catalytic dead mutant of caspase-8, C360A) (human) (UniProt Q14790). As to the kind of experiment: co-IP.

Sequences of proteins named here, by UniProt entry; tags and fusion partners are left off. A change or cut given only in a name is not applied to a line headed by its entry.
UniProt Q14790, whole entry, looked up, stated change not applied: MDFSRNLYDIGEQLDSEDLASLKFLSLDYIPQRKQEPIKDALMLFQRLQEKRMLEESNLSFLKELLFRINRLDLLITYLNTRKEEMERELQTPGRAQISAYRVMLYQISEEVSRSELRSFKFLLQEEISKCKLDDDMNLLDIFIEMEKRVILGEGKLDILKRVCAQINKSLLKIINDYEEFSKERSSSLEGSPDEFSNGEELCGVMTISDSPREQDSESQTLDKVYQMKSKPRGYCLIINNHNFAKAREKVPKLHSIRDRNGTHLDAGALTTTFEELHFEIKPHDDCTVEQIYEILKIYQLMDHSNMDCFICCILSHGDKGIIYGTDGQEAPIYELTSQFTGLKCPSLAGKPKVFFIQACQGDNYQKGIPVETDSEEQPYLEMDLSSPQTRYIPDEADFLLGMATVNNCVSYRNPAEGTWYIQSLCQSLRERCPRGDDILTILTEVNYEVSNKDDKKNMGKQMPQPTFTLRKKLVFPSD

No constants are given. Whether binding was seen depends on the method and setting. Binding seen in cells or lysates may run through a third protein. Some results given as binding are weak or reduced against the parent protein; the word gives no strength. Tags and fused reporters may be left off the sequences shown.

Regarding SLTENKYSQLDEEQPMEID (domain or fragment, UniProt P0DTC6 43-61) [GFP-ORF6-C (C-terminal domain of SARS-CoV-2 ORF6)], the binding result is reported as “binds”.

The record behind these values is PMC12591158.
